{
  "source": "patent US20150265661A1",
  "about": "“PREBIOTIC EFFECT OF SIALYLLACTOSE” (Trustees of Boston College, priority 2012, published 2015)",
  "system": "donor faecal microbiota",
  "test": "Consumption of each oligosaccharide by donor faecal microbiota (LC-MS)",
  "format": "cell-based, human",
  "details": "HMOS-supplemented faecal culture after fermentation, FIG. 3",
  "note": "Some of these results come from one statement about several compounds together.",
  "data": [
    {"substance": "lactodifucotetraose [LDFT]", "values": [
      {"measurement": "average consumption for all donor faecal microbiota", "value": "more than 90%"}
    ]}
  ]
}
